Patent publication US7901936B2, “Method for stimulating self-renewal of neural stem cells and enhancing neurogenesis” (Albany Medical College, priority 2004, dated 2011)
For at least one compound, name, drawing or mass did not settle the structure.

System: E10-E11 cortical stem cells
Assay: Differentiation of endothelial-expanded E10-E11 cortical stem cells with added serum, forskolin or retinoic acid
Type: cell-based, mouse
Details: 1% FBS, 5 μM forskolin or 1 μM retinoic acid

Row | SMILES | neurogenesis (neuron production)
1 | C=C[C@@]1(C)CC(=O)[C@]2(O)[C@@]3(C)[C@@H](O)CCC(C)(C)[C@@H]3[C@H](O)[C@H](OC(C)=O)[C@@]2(C)O1 [forskolin] | depressed neurogenesis
2 | CC1=C(/C=C/C(C)=C/C=C/C(C)=C/C(=O)O)C(C)(C)CCC1 [retinoic acid] | depressed neurogenesis
